Source: paper doi:10.1101/421909
No constants are given. Whether binding was seen depends on the method and setting. Binding seen in cells or lysates may run through a third protein. Some results given as binding are weak or reduced against the parent protein; the word gives no strength. Sequences can lack the tags named with a protein. Blank lines part the entries; values can stand above or below the molecule they belong to.

Protein sequences, listed by entry. Tags and fused reporters are not part of them. Residues count along the entry.
UniProt O14656, 21-332: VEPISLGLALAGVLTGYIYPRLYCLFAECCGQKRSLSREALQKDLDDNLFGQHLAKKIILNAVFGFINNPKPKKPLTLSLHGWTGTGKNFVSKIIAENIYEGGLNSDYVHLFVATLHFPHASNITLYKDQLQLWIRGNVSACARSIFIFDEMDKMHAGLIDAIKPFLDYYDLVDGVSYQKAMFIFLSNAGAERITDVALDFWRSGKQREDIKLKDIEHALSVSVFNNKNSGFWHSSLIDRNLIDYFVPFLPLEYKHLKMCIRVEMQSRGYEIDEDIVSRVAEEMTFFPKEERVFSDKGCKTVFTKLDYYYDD
UniProt P39685, whole entry: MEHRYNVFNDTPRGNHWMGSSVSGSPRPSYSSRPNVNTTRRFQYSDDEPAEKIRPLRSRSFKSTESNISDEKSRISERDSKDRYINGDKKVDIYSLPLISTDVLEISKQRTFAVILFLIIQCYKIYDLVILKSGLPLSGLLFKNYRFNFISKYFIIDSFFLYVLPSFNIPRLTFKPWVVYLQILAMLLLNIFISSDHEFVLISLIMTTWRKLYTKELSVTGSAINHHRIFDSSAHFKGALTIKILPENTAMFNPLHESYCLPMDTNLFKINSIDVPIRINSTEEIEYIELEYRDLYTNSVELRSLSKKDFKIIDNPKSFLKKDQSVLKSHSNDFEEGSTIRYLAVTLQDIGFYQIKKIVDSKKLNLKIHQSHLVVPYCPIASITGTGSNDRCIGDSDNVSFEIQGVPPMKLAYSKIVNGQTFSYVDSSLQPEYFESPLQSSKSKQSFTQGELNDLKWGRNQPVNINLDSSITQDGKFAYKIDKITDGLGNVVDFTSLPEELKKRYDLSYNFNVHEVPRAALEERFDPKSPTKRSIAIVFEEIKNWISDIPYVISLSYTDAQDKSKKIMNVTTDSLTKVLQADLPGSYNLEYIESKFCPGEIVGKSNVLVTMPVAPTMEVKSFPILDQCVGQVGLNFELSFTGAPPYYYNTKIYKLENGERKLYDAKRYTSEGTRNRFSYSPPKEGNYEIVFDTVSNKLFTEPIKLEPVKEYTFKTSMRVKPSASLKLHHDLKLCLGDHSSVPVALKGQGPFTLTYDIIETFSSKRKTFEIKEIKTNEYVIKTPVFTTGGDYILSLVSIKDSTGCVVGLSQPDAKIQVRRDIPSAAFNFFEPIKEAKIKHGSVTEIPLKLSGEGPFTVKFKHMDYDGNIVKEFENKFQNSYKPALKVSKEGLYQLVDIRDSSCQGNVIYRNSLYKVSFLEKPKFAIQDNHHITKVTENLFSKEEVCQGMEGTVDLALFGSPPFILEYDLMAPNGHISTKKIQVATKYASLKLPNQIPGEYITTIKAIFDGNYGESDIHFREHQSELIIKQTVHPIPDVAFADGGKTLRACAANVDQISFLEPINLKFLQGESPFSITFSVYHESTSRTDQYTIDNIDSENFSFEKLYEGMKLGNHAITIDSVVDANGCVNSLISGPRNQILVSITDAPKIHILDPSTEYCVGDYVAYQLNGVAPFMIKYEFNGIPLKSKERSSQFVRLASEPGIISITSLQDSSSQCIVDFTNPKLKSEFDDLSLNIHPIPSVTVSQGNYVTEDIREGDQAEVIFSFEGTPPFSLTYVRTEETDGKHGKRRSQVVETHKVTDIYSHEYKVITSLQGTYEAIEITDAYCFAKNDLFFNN

Target: TorsinA-GFP (human) (UniProt O14656)
Assay: co-IP

binding: binds
Molecule: Pom152 (from UniProt P39685 1-1337)

binding: binds
B1: Mps3-HA (protein, UniProt P47069 1-682)
chain: MNNSNEHRREEAGAANEQMPYNKAVKSAYADVLKDKMNREQEISLRAIKKGIYTDGGETDNYDMDKENDSAYEMFKKNLDFPLDQHNDDDDDDPYIEDNGQETDGYSDEDYTDEADKSFIEDSDSDSYDLESNSDFEENLESSGEAKKLKWRTYIFYGGLFFVFYFFGSFLMTTVKNNDLESHSSGATSSPGKSFSNLQKQVNHLYSELSKRDEKHSSELDKTVKIIVSQFEKNIKRLLPSNLVNFENDINSLTKQVETISTSMSELQRRNHKFTVENVTQWQDQLVKQLDTHLPQEIPVVINNSSSLLIIPELHNYLSALISDVIESPGIGTAGSAESRWEYDLNRYVKEILSNELQYIDKDYFIQEMNRRLQSNKQEIWEEITNRLETQQQQQQQQVQQDYSNVPQQYSSILMKRLIHQIYNSNQHQWEDDLDFATYVQGTKLLNHLTSPTWRQGSGVQPIELLTDSKQSSSTYWQCENEPGCSWAIRFKTPLYLTKISYMHGRFTNNLHIMNSAPRLISLYVKLSQTKEIKALQTLANQYGFGQHHKRDRNYIKIAKFEYRLTDSRIRQQMYLPPWFIQLKPLVRSIVFQVDENYGNKKFISLRKFIINGVTPQDLQIIENNEFPVLLGDTPEYGVTQNTDEGKRKVLLSKPPYASSSTSTKFHPASNVPSFGQDELDQ
